This note sets out measurements from article PMC4606566.

Amino acid sequences for entries named in this document (tags omitted).
UniProt Q2MJT0: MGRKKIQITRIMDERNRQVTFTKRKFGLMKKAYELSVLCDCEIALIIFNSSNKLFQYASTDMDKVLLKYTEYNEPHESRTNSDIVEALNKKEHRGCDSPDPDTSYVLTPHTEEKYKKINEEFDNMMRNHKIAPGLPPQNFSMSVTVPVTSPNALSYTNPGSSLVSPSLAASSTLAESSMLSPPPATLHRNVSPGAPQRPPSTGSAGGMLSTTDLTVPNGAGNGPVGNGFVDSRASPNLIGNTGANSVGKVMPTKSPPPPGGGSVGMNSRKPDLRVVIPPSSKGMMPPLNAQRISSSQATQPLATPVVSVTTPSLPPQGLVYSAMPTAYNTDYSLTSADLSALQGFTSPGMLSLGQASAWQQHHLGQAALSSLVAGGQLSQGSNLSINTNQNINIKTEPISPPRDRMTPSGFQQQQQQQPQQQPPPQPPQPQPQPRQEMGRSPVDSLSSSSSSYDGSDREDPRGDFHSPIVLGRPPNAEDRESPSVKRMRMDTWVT

These are yes or no findings as the source states them, for the method shown. Binding seen in cells or lysates may run through a third protein. Some results given as binding are weak or reduced against the parent protein; the word gives no strength.

In assay [1] the target is T1, PIMT (PRIP Interacting protein with Methyl Transferase domain) (rat (endogenous in L6)) (UniProt P85107).
T1 sequence: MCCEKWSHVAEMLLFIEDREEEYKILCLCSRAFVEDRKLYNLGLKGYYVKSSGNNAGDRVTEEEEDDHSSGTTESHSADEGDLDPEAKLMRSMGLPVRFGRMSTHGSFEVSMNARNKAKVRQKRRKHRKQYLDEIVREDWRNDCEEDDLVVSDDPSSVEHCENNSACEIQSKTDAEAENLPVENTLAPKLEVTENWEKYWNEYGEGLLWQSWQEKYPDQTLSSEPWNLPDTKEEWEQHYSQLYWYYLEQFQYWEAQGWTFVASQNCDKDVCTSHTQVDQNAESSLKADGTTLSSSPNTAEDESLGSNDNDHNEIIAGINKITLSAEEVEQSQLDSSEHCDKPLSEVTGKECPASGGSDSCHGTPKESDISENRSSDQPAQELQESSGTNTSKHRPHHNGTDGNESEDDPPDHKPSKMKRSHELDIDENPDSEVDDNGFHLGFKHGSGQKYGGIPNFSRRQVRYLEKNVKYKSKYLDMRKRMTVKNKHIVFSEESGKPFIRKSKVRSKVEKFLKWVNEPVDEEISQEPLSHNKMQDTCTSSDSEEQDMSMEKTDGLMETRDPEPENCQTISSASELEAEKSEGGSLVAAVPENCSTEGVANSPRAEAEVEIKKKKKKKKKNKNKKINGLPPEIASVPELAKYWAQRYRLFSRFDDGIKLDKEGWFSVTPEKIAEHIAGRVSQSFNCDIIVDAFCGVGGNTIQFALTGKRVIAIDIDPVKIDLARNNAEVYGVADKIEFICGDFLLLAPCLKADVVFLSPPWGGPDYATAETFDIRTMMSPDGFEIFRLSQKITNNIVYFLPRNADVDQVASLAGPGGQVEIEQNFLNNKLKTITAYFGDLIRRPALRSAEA
Nature of the assay: co-IP; TNF-α treated L6 myoblasts (2 ng/ml); 4 mg lysate (120 mM NaCl, 1% Triton X-100, 20 mM Tris-HCl pH 7.5, 10% glycerol, 2 mM EDTA) immunoprecipitated with anti-PIMT, blotted for Med-1, PGC-1α and MEF2A.

Assay [2] addresses T1, PIMT (PRIP Interacting protein with Methyl Transferase domain) (rat (endogenous in L6)). The assay is described as follows: co-IP; un-stimulated L6 myoblasts; 4 mg lysate (120 mM NaCl, 1% Triton X-100, 20 mM Tris-HCl pH 7.5, 10% glycerol, 2 mM EDTA) immunoprecipitated with anti-PIMT, blotted for Med-1, PGC-1α and MEF2A.

Consider MEF2A (from UniProt Q2MJT0 1-495), for which the binding entry is reported as “no binding (condition: in TNF-α exposed L6 myoblasts)” in assay [1] and “binds” in assay [2].
